Assay results from article PMC5354800.
These are yes or no findings as the source states them, for the method shown. Binding seen in cells or lysates may run through a third protein. Some entries that bind do so weakly or less than the wild type.

Amino acid sequences for entries named in this document (tags omitted).
UniProt P04198: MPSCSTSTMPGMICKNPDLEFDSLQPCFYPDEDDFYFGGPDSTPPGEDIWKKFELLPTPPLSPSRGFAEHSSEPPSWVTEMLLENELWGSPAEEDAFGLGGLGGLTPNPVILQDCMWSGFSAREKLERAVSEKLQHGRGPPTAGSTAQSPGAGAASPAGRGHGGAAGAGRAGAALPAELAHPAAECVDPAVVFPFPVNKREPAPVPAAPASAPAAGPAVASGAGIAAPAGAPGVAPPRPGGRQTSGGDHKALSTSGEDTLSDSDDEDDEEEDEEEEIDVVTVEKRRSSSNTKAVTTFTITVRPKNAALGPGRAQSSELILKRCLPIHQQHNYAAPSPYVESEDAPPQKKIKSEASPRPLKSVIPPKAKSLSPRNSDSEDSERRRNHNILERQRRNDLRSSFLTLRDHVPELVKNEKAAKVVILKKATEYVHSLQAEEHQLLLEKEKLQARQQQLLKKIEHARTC
UniProt P61244: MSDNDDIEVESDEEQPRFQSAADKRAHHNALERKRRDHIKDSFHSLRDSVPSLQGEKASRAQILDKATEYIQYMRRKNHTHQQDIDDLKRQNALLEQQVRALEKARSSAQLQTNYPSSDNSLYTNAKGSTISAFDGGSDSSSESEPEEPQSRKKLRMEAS

Target: 3xFLAG-MYCN (UniProt P04198)
Assay: co-IP; 0,3 mg protein extract of HEK 293T cells co-transfected with 3xFLAG-LSD1 and 3xFLAG-MYCN, cells treated with TCP, SP2509 or vehicle; precipitated with MYCN antibody; blots with MYCN, LSD1 and MAX antibodies

MAX (from UniProt P61244 1-160)
binding: binds
